The source gives many values for each of these; only a part stands here.
Tests used:
[1] = Body weight measurement in rat STZ-induced diabetes model; type: in vivo; conditions: mean ± SE, in g (unit assumed)
Experimental: (§1) Compound 9 (50 mg/mL) was diluted with water for injection to obtain a 1 mg/mL administration specimen. For the specimens to be administered at 0.1 mg/mL and 0.01 mg/mL, the specimen to be administered at 1 mg/mL was diluted stepwise with water for injection. Each administration specimen was divided into PP disposable tubes every day and stored in a storehouse (freezer: MDF-MU339H-PJ, PHC Corporation) under the condition of freezing (−30° C. to −20° C., measured value: −26.4 to −24.5° C.). Preparation was performed on the day before the start of administration.
(§2) Water for injection was added to and dissolved in Pregabalin taken out from the capsule to obtain 2 mg/mL. It was prepared before use.
(§3) • Animal species: rat (SPF) • Strain: Crl: CD (SD) • Date of animal acquisition, gender, age in weeks, number of animals acquired, and weight range after 1 day of acquisition • First and second courses: Apr. 6, 2022, male, 7 weeks old, 35 animals, 217 to 237 g • Third and fourth courses: Apr. 13, 2022, male, 7 weeks old, 35 animals, 216 to 235 g • Source: […].
(§4) • Dose volume: calculated at 2 mL/kg based on the body weight on the day of administration. • Number of times of administration: once • Day of administration: 7 days before the day of starting administration of the test substance.
(§5) • Dose volume: calculated at 1 mL/kg based on the body weight on the day of administration. • Number of times of administration: 9 times • Interval of administration: once every 3 days (evaluation was performed on the day after administration) • Day of starting administration: day 8 of STZ administration (day of STZ administration is counted as day 1).
(§6) • Dose volume: calculated at 10 mL/kg based on the body weight on the day of administration. • Number of times of administration: Administration was performed once on the day of evaluation of neuropathic pain, twice in total, and on the other days of administration, a vehicle for a control substance (water for injection) was orally administered.
• Measurement was performed every day after the day of STZ administration.
The mean and standard error of each group were calculated for the 50% withdrawal threshold, body weight, and blood glucose level.
The body weight was an integer.
No significant difference test of body weight and blood glucose levels was performed.

[2] = Observation of general condition in rat STZ-induced diabetes model; type: in vivo; conditions: 1 mg/kg iv, number of animals, 10 per group
Experimental: as §1, §2, §3, §4, §5, §6
• Observation of general condition • Observation was performed once a day.

CC[C@@]1(C)Oc2cc(ccc2O)C[C@H](NC)C(=O)N[C@@H](C(C)C)C(=O)N[C@@H]1C(=O)N[C@@H](CC(=O)O)C(=O)O [Compound 9]
Body weight ([1]; 0.01 mg/kg iv, day 35 of STZ administration): 312 ± 11 | Body weight ([1]; 0.1 mg/kg iv, day 34 of STZ administration): 312 ± 9 | Body weight ([1]; 0.1 mg/kg iv, day 35 of STZ administration): 314 ± 9 | Body weight ([1]; 1 mg/kg iv, day 34 of STZ administration): 308 ± 11 | Body weight ([1]; 1 mg/kg iv, day 35 of STZ administration): 310 ± 11 | general condition ([2]; day 23 of STZ administration): 10 | general condition ([2]; day 24 of STZ administration): 10 | general condition ([2]; day 25 of STZ administration): 10 | general condition ([2]; day 26 of STZ administration): 10 | general condition ([2]; day 27 of STZ administration): 10
